Assay results reported in the supplement of paper PMC10849652.
This is one part of the list.

The chains behind the UniProt entries cited, without tags or fusion partners. Where a name states a change or a piece, a line headed by the entry shows the natural chain unless it says otherwise.
UniProt Q15904, whole entry, looked up: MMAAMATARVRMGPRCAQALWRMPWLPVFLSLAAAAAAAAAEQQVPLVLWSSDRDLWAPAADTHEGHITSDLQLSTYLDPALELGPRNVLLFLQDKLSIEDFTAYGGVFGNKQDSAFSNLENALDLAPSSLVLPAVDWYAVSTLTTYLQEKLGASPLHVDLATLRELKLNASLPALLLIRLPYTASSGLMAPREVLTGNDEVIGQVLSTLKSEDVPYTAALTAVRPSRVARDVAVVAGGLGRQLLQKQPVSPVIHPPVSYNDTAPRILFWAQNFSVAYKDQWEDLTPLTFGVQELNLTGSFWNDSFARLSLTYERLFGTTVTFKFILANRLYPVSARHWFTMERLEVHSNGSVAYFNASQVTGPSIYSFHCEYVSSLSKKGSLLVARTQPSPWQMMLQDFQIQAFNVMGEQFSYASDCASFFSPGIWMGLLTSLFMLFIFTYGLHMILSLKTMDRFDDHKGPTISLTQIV
UniProt Q9BSB4: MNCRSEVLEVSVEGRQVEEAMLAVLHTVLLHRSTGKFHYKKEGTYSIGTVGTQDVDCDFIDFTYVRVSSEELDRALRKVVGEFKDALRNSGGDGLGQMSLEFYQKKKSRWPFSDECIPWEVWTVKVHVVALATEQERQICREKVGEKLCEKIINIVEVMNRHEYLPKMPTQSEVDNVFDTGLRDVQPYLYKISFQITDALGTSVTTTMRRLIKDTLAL
UniProt P40616: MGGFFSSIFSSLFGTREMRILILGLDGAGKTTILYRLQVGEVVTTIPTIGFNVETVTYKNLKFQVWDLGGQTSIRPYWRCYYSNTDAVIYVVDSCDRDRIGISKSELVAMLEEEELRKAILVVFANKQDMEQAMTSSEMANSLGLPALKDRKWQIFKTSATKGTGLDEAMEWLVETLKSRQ
UniProt O75787, whole entry, looked up: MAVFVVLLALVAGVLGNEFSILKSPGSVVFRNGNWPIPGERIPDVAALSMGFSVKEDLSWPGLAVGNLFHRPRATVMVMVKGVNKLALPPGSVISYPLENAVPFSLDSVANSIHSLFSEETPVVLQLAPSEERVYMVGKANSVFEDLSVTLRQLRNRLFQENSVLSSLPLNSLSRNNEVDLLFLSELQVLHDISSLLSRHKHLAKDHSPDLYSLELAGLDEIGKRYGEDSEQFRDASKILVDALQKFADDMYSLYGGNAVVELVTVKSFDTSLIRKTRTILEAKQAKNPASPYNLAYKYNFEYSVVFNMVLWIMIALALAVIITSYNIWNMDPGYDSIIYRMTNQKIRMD
UniProt P18850: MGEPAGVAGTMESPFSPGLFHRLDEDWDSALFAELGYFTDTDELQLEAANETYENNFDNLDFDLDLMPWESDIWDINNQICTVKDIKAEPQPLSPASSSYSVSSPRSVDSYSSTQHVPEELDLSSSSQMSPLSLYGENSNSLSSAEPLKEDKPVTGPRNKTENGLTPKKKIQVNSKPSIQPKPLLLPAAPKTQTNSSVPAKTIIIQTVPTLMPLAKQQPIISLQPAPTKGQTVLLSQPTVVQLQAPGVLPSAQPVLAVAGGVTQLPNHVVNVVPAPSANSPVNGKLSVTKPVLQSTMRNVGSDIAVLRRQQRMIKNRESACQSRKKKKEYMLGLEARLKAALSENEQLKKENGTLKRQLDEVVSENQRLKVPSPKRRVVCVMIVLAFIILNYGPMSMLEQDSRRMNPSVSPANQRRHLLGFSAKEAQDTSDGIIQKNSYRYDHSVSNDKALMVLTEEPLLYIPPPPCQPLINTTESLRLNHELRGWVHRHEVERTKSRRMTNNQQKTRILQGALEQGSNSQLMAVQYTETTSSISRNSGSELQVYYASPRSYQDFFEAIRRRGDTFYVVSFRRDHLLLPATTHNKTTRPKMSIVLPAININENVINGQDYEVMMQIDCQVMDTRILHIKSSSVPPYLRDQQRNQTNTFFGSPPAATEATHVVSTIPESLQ
UniProt Q8NHH9: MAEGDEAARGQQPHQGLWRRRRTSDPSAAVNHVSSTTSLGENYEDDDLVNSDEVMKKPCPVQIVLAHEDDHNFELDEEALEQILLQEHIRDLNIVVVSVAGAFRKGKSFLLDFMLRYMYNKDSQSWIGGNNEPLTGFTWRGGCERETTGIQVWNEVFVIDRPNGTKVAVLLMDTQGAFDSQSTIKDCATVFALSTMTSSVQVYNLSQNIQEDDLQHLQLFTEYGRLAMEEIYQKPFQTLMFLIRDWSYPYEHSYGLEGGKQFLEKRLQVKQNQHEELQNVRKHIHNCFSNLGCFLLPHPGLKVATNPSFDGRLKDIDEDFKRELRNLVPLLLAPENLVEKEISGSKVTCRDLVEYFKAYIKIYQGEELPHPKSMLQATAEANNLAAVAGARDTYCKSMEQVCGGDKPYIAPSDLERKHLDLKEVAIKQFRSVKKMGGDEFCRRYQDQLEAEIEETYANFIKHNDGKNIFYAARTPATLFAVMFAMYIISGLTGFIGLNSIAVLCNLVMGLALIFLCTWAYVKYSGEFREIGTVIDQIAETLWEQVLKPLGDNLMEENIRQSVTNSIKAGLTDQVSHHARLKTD
UniProt Q9H993: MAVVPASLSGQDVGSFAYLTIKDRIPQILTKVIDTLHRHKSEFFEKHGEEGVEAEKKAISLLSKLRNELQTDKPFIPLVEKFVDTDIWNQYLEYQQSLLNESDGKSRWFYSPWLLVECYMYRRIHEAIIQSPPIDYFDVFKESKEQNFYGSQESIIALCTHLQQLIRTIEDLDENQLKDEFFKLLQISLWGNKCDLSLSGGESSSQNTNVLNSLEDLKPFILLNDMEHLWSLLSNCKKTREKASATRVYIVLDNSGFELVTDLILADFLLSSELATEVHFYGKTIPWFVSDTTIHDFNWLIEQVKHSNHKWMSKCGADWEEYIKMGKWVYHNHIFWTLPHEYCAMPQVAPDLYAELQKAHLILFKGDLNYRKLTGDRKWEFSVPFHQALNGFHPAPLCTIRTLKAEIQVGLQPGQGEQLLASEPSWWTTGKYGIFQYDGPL
UniProt Q9BPX5, whole entry, looked up: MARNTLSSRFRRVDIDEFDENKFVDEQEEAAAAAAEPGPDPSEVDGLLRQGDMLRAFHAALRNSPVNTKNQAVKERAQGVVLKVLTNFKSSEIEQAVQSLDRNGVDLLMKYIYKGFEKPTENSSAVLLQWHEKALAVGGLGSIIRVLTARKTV
UniProt O43861: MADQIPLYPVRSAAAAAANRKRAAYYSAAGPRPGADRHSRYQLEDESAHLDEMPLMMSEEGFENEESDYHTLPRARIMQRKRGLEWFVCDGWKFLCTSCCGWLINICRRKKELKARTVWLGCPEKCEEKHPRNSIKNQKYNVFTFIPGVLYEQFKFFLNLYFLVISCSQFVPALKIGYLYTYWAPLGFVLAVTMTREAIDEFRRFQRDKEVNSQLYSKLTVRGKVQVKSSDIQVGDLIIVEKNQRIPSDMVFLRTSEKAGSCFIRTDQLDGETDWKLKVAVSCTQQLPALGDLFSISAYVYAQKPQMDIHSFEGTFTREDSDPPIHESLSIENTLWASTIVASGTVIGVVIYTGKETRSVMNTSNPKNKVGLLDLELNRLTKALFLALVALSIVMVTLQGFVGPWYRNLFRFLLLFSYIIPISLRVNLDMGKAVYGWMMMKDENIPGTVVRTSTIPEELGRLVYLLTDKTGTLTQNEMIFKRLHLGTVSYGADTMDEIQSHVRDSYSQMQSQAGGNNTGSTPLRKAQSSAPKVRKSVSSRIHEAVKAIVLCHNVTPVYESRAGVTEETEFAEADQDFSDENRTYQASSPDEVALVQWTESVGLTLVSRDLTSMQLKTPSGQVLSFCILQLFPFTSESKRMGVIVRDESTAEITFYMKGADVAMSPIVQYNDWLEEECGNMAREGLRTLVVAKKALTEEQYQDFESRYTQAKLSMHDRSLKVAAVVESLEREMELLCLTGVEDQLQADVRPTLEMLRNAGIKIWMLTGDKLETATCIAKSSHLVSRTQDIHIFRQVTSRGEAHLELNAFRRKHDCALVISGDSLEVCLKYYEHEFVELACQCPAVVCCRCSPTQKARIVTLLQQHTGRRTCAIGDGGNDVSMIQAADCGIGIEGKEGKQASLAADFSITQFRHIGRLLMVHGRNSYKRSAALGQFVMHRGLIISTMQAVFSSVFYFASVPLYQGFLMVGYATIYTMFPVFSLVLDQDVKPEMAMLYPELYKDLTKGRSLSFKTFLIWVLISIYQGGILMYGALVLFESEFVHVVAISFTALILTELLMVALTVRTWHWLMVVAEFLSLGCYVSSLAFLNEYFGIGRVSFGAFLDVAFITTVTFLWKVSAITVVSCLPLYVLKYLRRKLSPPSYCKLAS
UniProt Q8N5M1: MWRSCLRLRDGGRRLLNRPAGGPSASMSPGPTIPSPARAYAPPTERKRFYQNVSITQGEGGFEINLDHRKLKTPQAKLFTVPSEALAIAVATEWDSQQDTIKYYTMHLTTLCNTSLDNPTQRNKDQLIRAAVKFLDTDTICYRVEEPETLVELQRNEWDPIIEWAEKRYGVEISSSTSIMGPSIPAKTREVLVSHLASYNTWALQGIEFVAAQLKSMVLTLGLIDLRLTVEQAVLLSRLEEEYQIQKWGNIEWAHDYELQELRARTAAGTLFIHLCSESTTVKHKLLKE
UniProt P04424, whole entry, looked up: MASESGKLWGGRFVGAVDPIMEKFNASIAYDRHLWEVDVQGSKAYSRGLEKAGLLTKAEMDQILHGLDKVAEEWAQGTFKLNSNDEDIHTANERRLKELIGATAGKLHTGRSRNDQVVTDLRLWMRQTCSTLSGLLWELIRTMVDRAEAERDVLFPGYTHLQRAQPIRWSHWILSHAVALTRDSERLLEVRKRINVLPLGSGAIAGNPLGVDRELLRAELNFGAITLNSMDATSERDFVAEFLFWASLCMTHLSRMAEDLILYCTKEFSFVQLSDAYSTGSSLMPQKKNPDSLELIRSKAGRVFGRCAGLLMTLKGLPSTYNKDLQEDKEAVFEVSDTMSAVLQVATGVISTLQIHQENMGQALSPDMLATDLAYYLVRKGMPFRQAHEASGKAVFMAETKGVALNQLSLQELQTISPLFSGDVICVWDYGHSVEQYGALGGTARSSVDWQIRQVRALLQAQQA
UniProt P17544: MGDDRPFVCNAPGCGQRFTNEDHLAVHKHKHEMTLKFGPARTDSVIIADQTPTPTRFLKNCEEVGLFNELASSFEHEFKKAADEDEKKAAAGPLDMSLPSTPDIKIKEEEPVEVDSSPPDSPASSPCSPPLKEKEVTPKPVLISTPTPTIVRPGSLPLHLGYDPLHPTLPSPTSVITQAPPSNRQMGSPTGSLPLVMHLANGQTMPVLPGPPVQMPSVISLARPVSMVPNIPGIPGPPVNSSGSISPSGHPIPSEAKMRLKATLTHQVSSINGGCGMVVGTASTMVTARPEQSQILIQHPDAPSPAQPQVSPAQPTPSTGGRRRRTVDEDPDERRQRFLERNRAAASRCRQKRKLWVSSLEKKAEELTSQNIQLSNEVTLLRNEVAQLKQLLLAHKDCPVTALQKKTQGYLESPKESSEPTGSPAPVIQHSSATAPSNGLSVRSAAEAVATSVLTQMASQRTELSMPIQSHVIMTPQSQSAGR
UniProt O95376: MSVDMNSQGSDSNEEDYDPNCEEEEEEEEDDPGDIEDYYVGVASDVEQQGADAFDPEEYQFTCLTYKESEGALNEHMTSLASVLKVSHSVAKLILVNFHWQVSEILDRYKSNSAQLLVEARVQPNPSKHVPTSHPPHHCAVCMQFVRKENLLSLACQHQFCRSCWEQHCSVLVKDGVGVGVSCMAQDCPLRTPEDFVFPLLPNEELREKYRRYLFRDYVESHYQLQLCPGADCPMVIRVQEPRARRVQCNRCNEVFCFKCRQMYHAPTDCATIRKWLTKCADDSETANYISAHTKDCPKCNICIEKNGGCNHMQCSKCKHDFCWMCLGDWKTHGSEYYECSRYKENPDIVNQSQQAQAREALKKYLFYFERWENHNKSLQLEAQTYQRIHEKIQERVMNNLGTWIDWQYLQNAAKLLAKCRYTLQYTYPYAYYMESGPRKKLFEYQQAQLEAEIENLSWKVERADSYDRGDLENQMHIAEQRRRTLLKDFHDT
UniProt P18859: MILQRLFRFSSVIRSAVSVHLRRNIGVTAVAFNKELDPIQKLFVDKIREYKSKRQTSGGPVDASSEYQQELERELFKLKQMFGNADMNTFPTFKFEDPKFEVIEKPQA
UniProt P56381: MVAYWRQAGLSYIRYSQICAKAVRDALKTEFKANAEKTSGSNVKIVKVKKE
UniProt Q9NXU5: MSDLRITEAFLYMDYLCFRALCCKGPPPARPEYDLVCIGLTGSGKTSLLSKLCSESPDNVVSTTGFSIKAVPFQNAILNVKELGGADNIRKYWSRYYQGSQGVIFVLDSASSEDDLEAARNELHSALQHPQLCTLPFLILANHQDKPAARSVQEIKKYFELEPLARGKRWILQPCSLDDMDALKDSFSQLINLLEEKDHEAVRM
UniProt P24539: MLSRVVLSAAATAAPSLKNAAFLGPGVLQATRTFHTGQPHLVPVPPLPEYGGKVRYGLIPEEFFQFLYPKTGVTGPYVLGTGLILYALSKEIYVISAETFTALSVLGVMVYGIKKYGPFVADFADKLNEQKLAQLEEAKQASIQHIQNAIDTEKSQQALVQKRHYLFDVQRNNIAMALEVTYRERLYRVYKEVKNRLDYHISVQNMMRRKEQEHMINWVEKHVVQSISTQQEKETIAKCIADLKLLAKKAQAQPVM

Assays:
Assay in all cases: log2 fold change, soluble protein after heating vs DMSO (PISA); higher = thermal stabilisation; K562 cells, 10 uM, 30 min; active = over 0.2 and 3.5 SD of the protein, either way, in both replicates (recomputed)
[1] = compound: CC1=C(C=C(C=C1)NC(=O)C2=CC(=CC=C2)C(C)(C)C#N)NC3=CC4=C(C=C3)N=CN(C4=O)C
How it was run: (§1)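 For each measurement, 10 μM compound was applied for 30 min to K562 cells at 2×10^6 cells/mL. Aliquots were heated for 3 min across 48°C-58°C, pooled, and extracted in PBS with 0.5% NP-40 at 4°C; the supernatant after 21,000xg for 90 min was soluble protein. This was quantified by TMTpro 16plex LC-MS/MS with channel sums equalised, and thermal stability was reported relative to control samples from duplicates, on a log2 fold-change scale.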

[2] = compound: CC1=C(C=C(C=C1)NC(=O)C2=CC(=CC=C2)N(C)C)NC(=O)C3=CC=C(C=C3)O
How it was run: as §1

[3] = compound: CC1=CC=C(C=C1)SC2=C3C=C(SC3=CN=C2)C(=O)N
How it was run: as §1

[4] = compound: CC1=NC(=CC=C1)C2=C(N=C(N2)C(C)(C)C)C3=CC4=NC=CN=C4C=C3
How it was run: as §1

[5] = compound: CCCCN(Cc1ccc(C(=O)NO)cc1)C(=O)Nc1ccccc1 [Nexturastat A]
How it was run: as §1

[6] = compound: CCCS(=O)(=O)Nc1ccc(F)c(C(=O)c2c[nH]c3ncc(-c4ccc(Cl)cc4)cc23)c1F [vemurafenib]
How it was run: as §1

[7] = compound: CCCS(=O)(=O)Nc1ccc(F)c(C(=O)c2c[nH]c3ncc(Cl)cc23)c1F
How it was run: as §1

[8] = compound: CCCc1cc(C)[nH]c(=O)c1CNC(=O)c1cc(-c2ccnc(N3CCN(C)CC3)c2)cc2c1cnn2C(C)C
How it was run: as §1

[9] = compound: CCN(CC)Cc1ccc2cc(COC(=O)Nc3ccc(C(=O)NO)cc3)ccc2c1 [givinostat]
How it was run: as §1

[10] = compound: CCN(CCCOc1ccc2c(Nc3cc(CC(=O)Nc4cccc(F)c4)[nH]n3)ncnc2c1)CCOP(=O)(O)O [barasertib]
How it was run: as §1

Measured: log2 fold change

ATP6AP1 (UniProt Q15904)
inactive: [1] 0.009 | [2] -0.025 | [3] 0.004 | [4] -0.027 | [5] 0.114 | [6] -0.003 | [7] -0.018 | [8] -0.009 | [9] 0.038 | [10] 0.016

ATG101 (UniProt Q9BSB4)
inactive: [1] 0.02 | [2] 0.006 | [3] 0.009 | [4] 0.034 | [5] 0.074 | [6] 0.02 | [7] -0.074 | [8] -0.042 | [9] 0.028 | [10] 0.02

ARL1 (UniProt P40616)
inactive: [1] 0.057 | [2] -0.012 | [3] 0.162 | [4] 0.054 | [5] -0.119 | [6] 0.037 | [7] 0.116 | [8] 0.071 | [9] 0.07 | [10] 0.007

ATP6AP2 (UniProt O75787)
inactive: [1] 0.037 | [2] -0.097 | [3] -0.012 | [4] -0.037 | [5] -0.063 | [6] 0.035 | [7] 0.003 | [8] 0.034 | [9] -0.031 | [10] 0.025

ATP6V1A (UniProt P38606)
inactive: [1] 0.001 | [2] 0.001 | [3] -0.021 | [4] -0.005 | [5] -0.038 | [6] -0.003 | [7] 0.01 | [8] 0.016 | [9] 0.015 | [10] 0.004

ARSA (UniProt P15289)
inactive: [1] -0.044 | [2] -0.095 | [3] -0.136 | [4] 0.079 | [5] 0.029 | [6] -0.067 | [7] -0.119 | [8] -0.124 | [9] -0.027 | [10] 0.15

ATP2C1 isoform 7 (UniProt P98194)
inactive: [1] -0.002 | [2] 0.009 | [3] -0.007 | [4] 0.025 | [5] -0.063 | [6] 0.015 | [7] 0 | [8] -0.056 | [9] -0.028 | [10] -0.046

2 records picked at random from those above, as already listed:
ARSA (UniProt P15289)
inactive: [1] -0.044 | [2] -0.095 | [3] -0.136 | [4] 0.079 | [5] 0.029 | [6] -0.067 | [7] -0.119 | [8] -0.124 | [9] -0.027 | [10] 0.15

ATP6V1A (UniProt P38606)
inactive: [1] 0.001 | [2] 0.001 | [3] -0.021 | [4] -0.005 | [5] -0.038 | [6] -0.003 | [7] 0.01 | [8] 0.016 | [9] 0.015 | [10] 0.004

(further entries)

ATP13A2 (UniProt Q9NQ11)
inactive: [1] 0.017 | [2] 0.009 | [3] 0.035 | [4] 0.055 | [5] 0.001 | [6] 0.085 | [7] -0.037 | [8] 0.014 | [9] -0.044 | [10] -0.052

ATF6 (UniProt P18850)
inactive: [1] 0.038 | [2] 0.029

ATL2 (UniProt Q8NHH9)
inactive: [1] 0.022 | [2] -0.107 | [3] -0.013 | [4] 0.029 | [5] 0.037 | [6] -0.004 | [7] 0.005 | [8] -0.104 | [9] 0.023 | [10] 0.019

ARMT1 (UniProt Q9H993)
inactive: [1] -0.127 | [2] -0.101 | [3] 0.055 | [4] -0.042 | [5] 0.163 | [6] 0.084 | [7] 0.085 | [8] 0.049 | [9] 0.173 | [10] 0.119

ARPC5L (UniProt Q9BPX5)
inactive: [1] -0.055 | [2] -0.013 | [3] -0.022 | [4] 0 | [5] 0.04 | [6] 0.067 | [7] 0.004 | [8] -0.01 | [9] -0.008 | [10] 0.048

ATP1A3 isoform 3 (UniProt P13637)
inactive: [1] -0.009 | [2] 0.018 | [3] -0.019 | [4] -0.016 | [5] 0.061 | [6] -0.02 | [7] -0.036 | [8] 0.001 | [9] -0.017 | [10] 0

ARPC3 (UniProt O15145)
inactive: [1] -0.03 | [2] -0.015 | [3] 0.004 | [4] 0.004 | [5] -0.097 | [6] 0.039 | [7] -0.002 | [8] -0.108 | [9] -0.01 | [10] 0.024

ATP9B (UniProt O43861)
inactive: [1] -0.185 | [2] -0.007 | [3] -0.054 | [4] 0.061 | [5] 0.013 | [6] -0.05 | [7] 0.01 | [8] -0.03 | [9] 0.085 | [10] 0.013

ATPAF2 (UniProt Q8N5M1)
inactive: [1] -0.033 | [2] 0.001 | [3] -0.059 | [4] -0.026 | [5] -0.156 | [6] -0.065 | [7] 0 | [8] -0.043 | [9] 0.017 | [10] -0.007

ASL (UniProt P04424)
inactive: [1] 0.01 | [2] -0.007 | [3] 0.02 | [4] -0.005 | [5] -0.039 | [6] 0.005 | [7] -0.009 | [8] -0.018 | [9] -0.009 | [10] 0.012

ATF7 isoform 6 (UniProt P17544)
inactive: [1] 0.465 | [2] -0.163 | [3] -0.155 | [4] -0.085 | [5] -0.042 | [6] 0.045 | [7] 0.239 | [8] -0.032 | [9] -0.131 | [10] -0.033

ARIH2 (UniProt O95376)
inactive: [1] 0.038 | [2] 0.004 | [3] -0.036 | [4] 0.029 | [5] -0.069 | [6] 0.034 | [7] 0.032 | [8] 0.036 | [9] -0.039 | [10] 0.036

ARPC4 isoform 3 (UniProt P59998)
inactive: [1] -0.013 | [2] 0.106 | [3] 0.002 | [4] 0.007 | [5] -0.069 | [6] 0.036 | [7] 0.001 | [8] -0.054 | [9] 0.011 | [10] 0.003

ATP5PF isoform 2 (UniProt P18859)
inactive: [1] 0.003 | [2] -0.149 | [3] 0.041 | [4] 0.107 | [5] 0.045 | [6] 0.108 | [7] -0.054 | [8] 0.134 | [9] -0.029 | [10] 0

ARPC1B (UniProt O15143)
inactive: [1] -0.032 | [2] -0.018 | [3] 0.063 | [4] 0.139 | [5] 0.027 | [6] 0.146 | [7] 0.193 | [8] 0.043 | [9] -0.022 | [10] 0.012

ATP5F1E (UniProt P56381)
inactive: [1] -0.026 | [2] -0.007 | [3] -0.009 | [4] 0.035 | [5] -0.047 | [6] -0.041 | [7] -0.016 | [8] -0.019 | [9] -0.051 | [10] 0.017

ATP2A3 isoform 2 (UniProt Q93084)
inactive: [1] -0.024 | [2] -0.001 | [3] -0.013 | [4] 0.004 | [5] 0 | [6] -0.004 | [7] 0.032 | [8] 0.042 | [9] -0.01 | [10] 0.011

ARSB (UniProt P15848)
inactive: [1] 0.048 | [2] 0.063 | [3] 0.07 | [4] -0.038 | [5] -0.011 | [6] -0.063 | [7] -0.113 | [8] -0.014 | [9] 0.022 | [10] 0.013

ARL15 (UniProt Q9NXU5)
inactive: [1] -0.003 | [2] -0.039 | [3] 0.042 | [4] -0.019 | [5] -0.068 | [6] 0.025 | [7] 0.01 | [8] -0.043 | [9] -0.013 | [10] -0.015

ATG9A (UniProt Q7Z3C6)
inactive: [1] -0.019 | [2] -0.017 | [3] 0.038 | [4] 0.008 | [5] -0.018 | [6] -0.006 | [7] 0.019 | [8] 0.007 | [9] 0.019 | [10] 0.045

ATP5PB (UniProt P24539)
inactive: [1] 0.013 | [2] -0.018 | [3] 0.01 | [4] 0.019 | [5] -0.072 | [6] 0.021 | [7] -0.005 | [8] -0.087 | [9] 0.005 | [10] -0.007

ATP11B (UniProt Q9Y2G3)
inactive: [1] -0.038 | [2] 0.008 | [3] -0.008 | [4] 0.019 | [5] -0.094 | [6] -0.061 | [7] 0.016 | [8] -0.05 | [9] 0.025 | [10] -0.019

ATP6V1E1 (UniProt P36543)
inactive: [1] -0.028 | [2] -0.017 | [3] -0.05 | [4] -0.017 | [5] 0.052 | [6] 0.028 | [7] -0.015 | [8] 0.084 | [9] 0.017 | [10] 0.015
